No constants are given. Whether binding was seen depends on the method and setting. In cells and extracts the contact can be indirect. For some assays here: Binding can be weak; no strength is given.
Assays:
Experiment in all cases: split reporter
[1] = target: ssy1-12TM-Cub-GST (S. cerevisiae)
[2] = target: agp1-10TM-Cub-GST (S. cerevisiae)
[3] = target: gap1-6TM-Cub-GST (S. cerevisiae)
[4] = target: can1-10TM-Cub-GST (S. cerevisiae)
[5] = target: gap1-4TM-Cub-GST (S. cerevisiae)
[6] = target: gal2-10TM-Cub-GST (S. cerevisiae)
[7] = target: hxt1-12TM-Cub-GST (S. cerevisiae)
[8] = target: hxt1-10TM-Cub-GST (S. cerevisiae)
[9] = target: hxt1-8TM-Cub-GST (S. cerevisiae)
[10] = target: gap1-12TM-Cub-GST (S. cerevisiae)
[11] = target: gal2-4TM-Cub-GST (S. cerevisiae)
[12] = target: gal2-12TM-Cub-GST (S. cerevisiae)
[13] = target: hxt1-2TM-Cub-GST (S. cerevisiae)
[14] = target: agp1-12TM-Cub-GST (S. cerevisiae)
[15] = target: agp1-2TM-Cub-GST (S. cerevisiae)
[16] = target: gal2-6TM-Cub-GST (S. cerevisiae)
[17] = target: agp1-6TM-Cub-GST (S. cerevisiae)

B1: Shr3-NubA (protein, UniProt Q02774 1-210)
chain: MFSYSDFCSIGTAMILSATTFLMGVFFSNMPYDYHLLFNPNSTQEHFDLALRHYQILHETPLPVIVTLCVVAGIGLVGGTIKVFKPNPELQMFEYCSLGLYVLAICVFLTNVKTGIDCSVSHNWGEVTENQGLAVIASSNIILLVMFAGVIILQIGLWYSNWDLQKRLKEFYAQEEREAANAGKKTEKVDNAKKNDNKSKGAQKRKNAKK
In the case of B1, the binding [1] is reported as “binds”, the binding [2] is reported as “binds” and the binding [3] is reported as “binds”. For the same binder, the binding [4] was “binds”, the binding [5] was “binds” and the binding [6] was “no binding”. For the same binder, the binding [7] was “no binding”, the binding [8] was “no binding” and the binding [9] was “no binding”. The binding [10] was “binds weakly”, the binding [11] was “no binding” and the binding [12] was “no binding”. For the same binder, the binding [13] was “no binding”, the binding [14] was “binds weakly” and the binding [15] was “binds”. For the same binder, the binding [16] was “no binding” and the binding [17] was “binds”.

Reference: doi:10.1101/2020.07.05.188557
